Laboratory results from US11542283B2, “Synthesis of peptide borate ester compound and use thereof” (JIANGSU CHIA TAI FENGHAI PHARMACEUTICAL CO., LTD., priority 2018, dated 2023).
At least one structure is not confirmed: it was looked up by name or label, or the drawing left a doubt.

The chains behind the UniProt entries cited, without tags or fusion partners. Residues count along the entry.
UniProt O55234, 60-264: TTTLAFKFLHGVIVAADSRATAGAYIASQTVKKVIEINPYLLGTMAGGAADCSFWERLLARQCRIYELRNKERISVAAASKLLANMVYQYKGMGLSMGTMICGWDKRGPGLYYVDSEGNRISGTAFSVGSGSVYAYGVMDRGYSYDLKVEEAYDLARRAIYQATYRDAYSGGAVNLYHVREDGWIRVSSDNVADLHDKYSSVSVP

Molecular target: proteasome activity in blood cells (Mus musculus (Mouse), UniProt O55234)
Test: In-vivo pharmacodynamics: proteasome activity in blood cells
Conditions: ICR mice, oral single dose 2 mg/kg
Protocol: The compound designed in the present invention can be used to treat malignant tumors of the blood system, so the efficacy of the compound was evaluated by detecting the activity of the proteasome in the blood after single administration, and the in-vivo pharmacodynamic study can be carried out by blood sampling at different time points.
1. 8 week-old ICR mice purchased from Shanghai Bikai Laboratory Animal Co., Ltd., were transferred to a barrier system to adapt to the environment for one week.
2. The animals were divided into three groups, including a positive control group (MLN9708) and two experimental groups (IV-9, V-9A), each group having 3 animals.
3. Before administration, 100 μL of blood was sampled from each animal from the orbital venus plexus and used as the blank control, and the proteasome activity measured in blood cells in this sample was taken as 100%. 1 and 24 hrs after administration, blood was sampled from the orbital venus plexus, and the proteasome activity in blood cells was detected. The inhibitory effect of the drug on proteasome activity and recovery of proteasome activity in blood was obtained by comparison with the data at time 0.
4. […]
5. […] A cell lysing solution was added for protein quantification to correct the detected value. […] The dilution was further reacted with the fluorescent peptide substrate to detect the proteasome activity on a microplate reader.

Question: Which “inhibitory activity on proteasome in blood cells” value (1 hr after administration, compared with MLN9708 5 mg/kg) does the source give for `CSC[C@H](NC(=O)c1cc(Cl)ccc1Cl)C(=O)N[C@@H](CC(C)C)B(O)O` [IV-9] here?
Answer: The value was “basically comparable to that of MLN9708”.

Question: What about the “proteasome activity in blood cells recovered, of the activity in the control group” value (24 hrs after administration) of the same molecule?
Answer: Its value is 60%.
